This test relates to nude mice, HT29 intrarenal xenograft, tumor weight T/C. Description: NCI In Vivo Anticancer Drug Screen. Data for tumor model HT29;CX-1 Human Adenocarcinoma (MER+) (intrarenal inoculation) in NU/NU Swiss (nude) mice. To be noted: T/C endpoint: mean tumor weight change, schedule: Q01DX010 (sc), higher T/C = larger tumour. Put shortly: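 Tumor-bearing mice received test compound or vehicle, and tumor size or survival was recorded. Values are the treated-group measurement divided by the vehicle-treated control measurement.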

The list is a part of this screen's results and no random one: it is rich in T/C values a quarter to a half above the control, in often repeated tests (any T/C) and in doses without a T/C. Other doses and runs of a compound stand elsewhere. T/C gives the treated animals as a percentage of the vehicle group. Some T/C values are followed by the survivors on the day toxicity was checked, most often the fifth; without a count, all were alive then. Schedule codes are those of the source, taken here to give the interval after Q, in days (D) or hours (H), and the number of doses after X. Some doses have a count of surviving animals in place of a T/C: the source holds a T/C of zero for them, seemingly a mark for toxic or unscored doses. Survivors were counted at the toxicity check, usually on the fifth day, unless a day is given; later deaths do not show.

For the compound `CN(C)C(=O)c1cccc(COc2ccc(N3C(N)=NC(N)=NC3(C)C)cc2Cl)c1`, the survivor count is, setting by setting: (dose: 12.5 mg/kg/injection, vehicle: saline) 1 of 3 on day 11; (dose: 25.0 mg/kg/injection, vehicle: saline) 1 of 3 on day 11; (dose: 50.0 mg/kg/injection, vehicle: saline) 0 of 3 on day 11; (dose: 50.0 mg/kg/injection, vehicle: water) 0 of 3 on day 11; (dose: 100.0 mg/kg/injection, vehicle: saline) 0 of 3 on day 11; (dose: 100.0 mg/kg/injection, vehicle: water) 0 of 3 on day 11. Further, under “dose: 25.0 mg/kg/injection, vehicle: water, evaluated on day 11”, the T/C is 132 % of control [2 of 3 alive on day 11].
